Measurements reported in PubChem BioAssay AID1159579 (Peter MacCallum Cancer Centre, 2015).
Here is one part, drawn at random, of about 2,000 reagents. Over the whole deposit, 549 (27%) are marked active. 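Some migration ratios are negative; siRNAs with too few cells are inactive whatever their migration ratio.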 Entries without a mark were called inactive. The numbers tell different reagents against one gene apart. The record does not give: the time to read-out.

Assay: 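Find genes whose silencing alters migration of lymphatic endothelial cells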 (follow-up of hits)
Cell system: human dermal lymphatic endothelial cells
Reagent: single siRNA against human genes, 25 nM
Detection: 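Scratch wound imaging measuring area filled by moving cells plus nuclei number, averaged over two wells and scaled to mock-transfected controls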
Scale: migration relative to mock: higher = more migration into the scratch; mean nuclei count: higher = more cells remaining
Hit rule: 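a ratio of at most 0.6 or at least 1.3 marks altered migration and an active call; a mean nuclei count under 3300 forces an inactive call regardless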
Meaning of the calls: active = migration changed (impaired or accelerated); inactive = no migration change, or too few cells

target gene	reagent no.	migration relative to mock	migration and cell number class	mean nuclei count
TPD52L1	1	0.18 (active)	migration reduced	4494
TPD52L1	2	0.88	no change in migration or cell number	5672
TPD52L1	3	0.37 (active)	migration reduced	4853
TPD52L1	4	0.96	no change in migration or cell number	6258
TLNRD1	1	0.85	no change in migration or cell number	5742
TLNRD1	2	0.93	no change in migration or cell number	4724
TLNRD1	3	0.76	no change in migration or cell number	5182
TLNRD1	4	0.7	no change in migration or cell number	4950
ABCG5	1	0.59 (active)	migration reduced	4648
ABCG5	2	0.31	too few cells; migration not scored	2790
ABCG5	3	0.9	no change in migration or cell number	5250
ABCG5	4	0.74	no change in migration or cell number	5558
TCAIM	1	0.54 (active)	migration reduced	3972
TCAIM	2	0.94	no change in migration or cell number	5576
TCAIM	3	1.13	no change in migration or cell number	5702
TCAIM	4	0.98	no change in migration or cell number	4688
NIF3L1	1	0.82	no change in migration or cell number	6876
NIF3L1	2	0.98	no change in migration or cell number	5354
NIF3L1	3	0.87	no change in migration or cell number	5206
NIF3L1	4	0.86	no change in migration or cell number	4477
ALS2	1	0.71	no change in migration or cell number	5028
ALS2	2	0.94	no change in migration or cell number	5357
ALS2	3	0.65	no change in migration or cell number	5814
ALS2	4	0.72	no change in migration or cell number	4740
NDUFA8	1	0.84	no change in migration or cell number	5420
NDUFA8	2	0.62	no change in migration or cell number	4633
NDUFA8	3	0.57 (active)	migration reduced	5276
NDUFA8	4	0.92	no change in migration or cell number	6327
TUBA1B	1	0.77	too few cells; migration not scored	3276
TUBA1B	2	0.77	no change in migration or cell number	4380
TUBA1B	3	0.6 (active)	migration reduced	3794
TUBA1B	4	0.44 (active)	migration reduced	4078
CPN2	1	0.57 (active)	migration reduced	6493
CPN2	2	0.61	no change in migration or cell number	6468
CPN2	3	0.62	no change in migration or cell number	6103
CPN2	4	0.74	no change in migration or cell number	6347
NFATC4	1	0.6 (active)	migration reduced	5845
NFATC4	2	0.21 (active)	migration reduced	4950
NFATC4	3	0.49 (active)	migration reduced	5456
NFATC4	4	0.94	no change in migration or cell number	6246
POMK	1	0.66	no change in migration or cell number	4321
POMK	2	0.99	no change in migration or cell number	5700
POMK	3	0.89	no change in migration or cell number	6356
POMK	4	0.98	no change in migration or cell number	5746
BORCS6	1	0.86	no change in migration or cell number	6360
BORCS6	2	0.5 (active)	migration reduced	4472
BORCS6	3	0.4 (active)	migration reduced	3330
BORCS6	4	0.37 (active)	migration reduced	4035
SDR9C7	1	1.1	no change in migration or cell number	6330
SDR9C7	2	0.95	no change in migration or cell number	5974
SDR9C7	3	0.73	no change in migration or cell number	4836
SDR9C7	4	1.14	no change in migration or cell number	5648
CGN	1	1.04	no change in migration or cell number	5964
CGN	2	0.71	no change in migration or cell number	4993
CGN	3	0.92	no change in migration or cell number	7556
CGN	4	0.76	no change in migration or cell number	7168
C18orf32	1	1.06	no change in migration or cell number	5283
C18orf32	2	0.91	no change in migration or cell number	4890
C18orf32	3	1.13	no change in migration or cell number	4212
C18orf32	4	1.15	no change in migration or cell number	5596
SH3BGRL2	1	0.95	no change in migration or cell number	5542
SH3BGRL2	2	0.65	no change in migration or cell number	4708
SH3BGRL2	3	1.06	no change in migration or cell number	6350
SH3BGRL2	4	1.03	no change in migration or cell number	6102
VSTM1	1	0.64	no change in migration or cell number	4745
VSTM1	2	0.43 (active)	migration reduced	6424
VSTM1	3	0.94	no change in migration or cell number	5260
VSTM1	4	0.86	no change in migration or cell number	4471
